From doi:10.1101/2022.04.29.490041

How the values were obtained:
Test in all cases: co-IP
[1] = target: T1, mRFP:αSNAP2 (alpha-soluble NSF-associated protein 2, wild-type form, RFP-tagged) (Arabidopsis thaliana) (UniProt Q9SPE6)
T1 sequence: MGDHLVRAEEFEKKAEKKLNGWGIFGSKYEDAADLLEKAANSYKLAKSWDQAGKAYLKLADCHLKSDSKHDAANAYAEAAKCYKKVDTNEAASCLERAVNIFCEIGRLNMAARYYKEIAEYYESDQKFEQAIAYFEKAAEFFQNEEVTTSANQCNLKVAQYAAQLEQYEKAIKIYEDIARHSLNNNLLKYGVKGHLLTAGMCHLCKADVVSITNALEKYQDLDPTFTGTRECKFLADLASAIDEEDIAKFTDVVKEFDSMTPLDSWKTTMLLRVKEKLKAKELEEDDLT

[2] = target: T2, NSF:GFP (N-ethylmaleimide-sensitive factor, wild-type form, GFP-tagged) (Arabidopsis thaliana) (UniProt Q9M0Y8)
T2 sequence: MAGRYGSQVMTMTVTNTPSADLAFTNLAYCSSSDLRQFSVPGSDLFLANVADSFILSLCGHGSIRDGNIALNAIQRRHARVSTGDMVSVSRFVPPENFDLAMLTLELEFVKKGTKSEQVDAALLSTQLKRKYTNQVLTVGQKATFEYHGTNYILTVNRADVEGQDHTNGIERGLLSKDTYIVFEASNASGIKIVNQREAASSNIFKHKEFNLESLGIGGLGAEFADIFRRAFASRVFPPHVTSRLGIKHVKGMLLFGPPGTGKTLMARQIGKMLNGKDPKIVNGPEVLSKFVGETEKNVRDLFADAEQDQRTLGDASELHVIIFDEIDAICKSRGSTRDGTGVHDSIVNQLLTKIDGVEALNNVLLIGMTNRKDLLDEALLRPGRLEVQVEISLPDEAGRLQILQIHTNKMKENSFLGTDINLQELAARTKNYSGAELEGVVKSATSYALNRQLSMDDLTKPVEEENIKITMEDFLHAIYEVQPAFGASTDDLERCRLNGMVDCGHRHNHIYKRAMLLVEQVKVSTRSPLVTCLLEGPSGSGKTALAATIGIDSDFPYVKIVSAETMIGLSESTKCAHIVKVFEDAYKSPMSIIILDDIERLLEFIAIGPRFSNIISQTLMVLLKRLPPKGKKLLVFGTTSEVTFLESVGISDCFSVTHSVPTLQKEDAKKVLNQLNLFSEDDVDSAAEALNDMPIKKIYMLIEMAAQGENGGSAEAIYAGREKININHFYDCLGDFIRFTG

[3] = target: T3, mRFP:αSNAP2_(L288A) (dominant-negative variant of αSNAP2, RFP-tagged) (Arabidopsis thaliana) (UniProt Q9SPE6)
T3 sequence: T1 sequence with L288A

- binding [1]: binds
- binding [2]: binds
- binding [3]: binds
Substance: KNOLLE (cytokinesis-specific Qa-SNARE)

Residue numbers refer to the chain shown, from its start. Results are given in words; binding and its absence hold for the method and conditions named. Binding seen in cells or lysates may run through a third protein. Binding can be weak; no strength is given. Where a sequence is shown, tags or fusion partners need not be part of it.
